Experimental data published in US20240181000A1, “LGG-DERIVED PEPTIDES AND METHODS OF USE THEREOF” (Ohio State Innovation Foundation, priority 2021, published 2024).
For part of these data: At least one peptide structure holds a part that was inferred or is arguable (an end, a ring closure or a residue). Marks after values point to notes of the source that are not given here. Some entries share one result that the patent states for a list of compounds. No end group written: not given here.

Tests used:
[1] = test system: cecal microbiota; test: Cecal microbiome analysis (peptides, APEC infected); format: in vivo, chickens; settings: genus
Experimental: Cecal microbiome analysis: To investigate the impact of peptides (P1, P2, and P3) treatment (50 mg/kg and 100 mg/kg) on cecal microbiome of chickens, 16S rRNA based metagenomic study was conducted as previously described. DNA was extracted from 0.2 g of cecal contents using PureLink™ Microbiome DNA Purification Kit (Thermofisher Scientific) and treated with RNase A (2 μL of 100 mg/mL solution per sample; Qiagen) to remove the RNA. DNA quantity and quality were measured using NanoDrop 2000c Spectrophotometer (Thermo Fisher Scientific). The extracted DNA samples were subjected to 16S rRNA V4-V5 sequencing at molecular and cellular imaging center (MCIC), Ohio Agricultural Research and Development Center (OARDC) (mcic.osu.edu/genomics/illumina-sequencing). Amplicon libraries were prepared using IFU KAPA HiFi HotStart ReadyMixPCR Kit (Roche) and PCR clean-up was performed using Agencourt AMPure XP beads (BECKMAN COULTER Life Sciences). Nextera XT DNA Library Preparation Kit (Illumina) was used to generate Illumina library and sequencing was performed using Illumina MiSeq platform generating paired end 300-bp reads.
For the metagenomic analysis, QIIME (Quantitative Insights into Microbial Ecology) 2 bioinformatics platform (qiime2.org/) was used. Quality control of the raw reads was performed using FastQC 0.11.8 (Babraham Bioinformatics). Trimmomatic-0.33 was used to trim the adaptor and other illumina-specific sequences (www.usadellab.org/cms/?page=trimmomatic). The trimmed sequences (fastq.gz) were then imported into the QIIME 2 as a manifest file format (PairedEndManifestPhred33V2). The feature table construction and additional filtering of the sequences was performed using DADA2. The taxonomic analysis was performed using Naive Bayes classifiers trained on the Silva 132 99% OTUs (silva-132-99-nb-classifier.qza) database. The phylogenetic diversity was analyzed using align-to-tree-mafft-fasttree pipeline and alpha ([…]) were analyzed using core-metrics-phylogenetic pipeline (docs.qiime2.org/2019.7/tutorials/moving-pictures/). The statistical difference (P<0.05) in the taxonomic composition between the peptides treated, PC, and NC groups was determined using Mann-Whitney U test. The alpha and beta diversity were analyzed using Kruskal-Wallis and PERMANOVA tests (P<0.05), respectively.

[2] = test system: MlaA; test: Immunoblot analysis; format: cell-based, E. coli; settings: densitometry
Experimental: (§1) Immunoblot analysis: To corroborate the findings of gene expression study, level of OmpC and MlaA proteins upon peptides (P1, P2, and P3) treatment was investigated as described previously. Peptides treated culture of APEC O78 was prepared as above and DMSO treated culture was used as control. Post-treatment, the fractions of cytoplasmic and membrane proteins was prepared using ultracentrifugation as previously described. The concentrations of fractionated membrane proteins were then normalized based on 280 nm and separated on a 12% SDS-PAGE. For immunoblot analysis, membrane proteins (25 μg) resolved on SDS-PAGE above were electrotransferred onto an Immuno-Blot® PVDF Membrane (Bio-Rad) and probed for OmpC and MlaA using anti-OmpC (1:2,000) (ThermoFisher Scientific) and anti-MlaA (1:15,000; Dr. Thomas J. Silhavy) polyclonal antibodies and goat anti-rabbit IgG HRP-conjugated secondary antibody (Sigma-Aldrich). The membrane was developed with Clarity Western ECL Substrate (Bio-Rad) and visualized in a FluorChem Q (proteinsimple) imager. The density of OmpC and MlaA proteins was quantified using ImageJ software.

[3] = test system: OmpC; test: Immunoblot analysis; format: cell-based, E. coli; settings: densitometry
Experimental: as §1

[4] = test system: Biofilm embedded SE; test: MBEC Assay; format: cell-based, Salmonella enterica; settings: at MICs; untreated 6.77 ± 0.02
Experimental: Peptides effect against biofilm embedded Salmonella: To analyze the ability of the peptides (P1, P2, and P4) to retain their inhibitory characteristics against biofilm protected Salmonella, Innovotech's MBEC Assay® (Innovotech Inc., AB, Canada) was conducted as previously detailed. Initially, 150 μL of 5×10^7 CFU/mL adjusted ST or SE suspension in LB media was aliquoted into the wells of MBEC inoculator plates containing polystyrene pegs and incubated for 36 h on a rocker platform at 37° C. to allow the biofilm formation. After biofilm formation, the pegs were washed to remove loosely adherent planktonic bacteria and transferred to a new 96-well plate containing peptides at MICs, with relevant controls, in 200 μL 25% LB media. The diluted LB media was used because it allows for slow bacterial growth to promote biofilm formation due to limited nutrients. The plate was incubated for 18 h at 37° C. with rotation at 150 rpm. Sterile media and DMSO were used as controls. Following incubation, the MICs of peptides in challenge plate were recorded. The pegs were transferred to new 96-well plate containing PBS and sonicated for 30 minutes to disrupt the biofilm. The sonicated suspensions were then ten-fold serially diluted and plated on LB agar plates to enumerate the biofilm protected bacteria and determine the minimum biofilm eradication concentration (MBEC) of peptides. […]

[5] = test system: cecal microbiota; test: Cecal microbiome analysis (peptides, ST infected); format: in vivo, chickens; settings: genus
Experimental: Cecal microbiome analysis: To evaluate the role P1, P2, and P4 (50 mg/kg) treatment on the cecal microbiome of chickens, 16S rRNA based metagenomic study was conducted as previously described. DNA was extracted from approximately 0.2 g of cecal content using PureLink™ Microbiome DNA Purification Kit (Thermofisher Scientific). After which, RNA was removed with the treatment of RNase A (2 μL of 100 mg/mL solution per sample: Qiagen). NanoDrop 2000c Spectrophotometer (ThermoFisher Scientific) was used to check the quality and measure the quantity of the DNA. The extracted DNA was used in 16S rRNA V4-V5 sequencing done at MCIC (mcic.osu.edu/genomics/illumina-sequencing). Amplicon libraries were prepared using IFU KAPA HiFi HotStart ReadyMixPCR Kit (Roche). […] Nextera XT DNA Library Preparation Kit (Illumina) was used to generate Illumina library and sequencing done with Illumina MiSeq platform generating paired end 300-bp reads. QIIME 2 (Quantitative Insights Into Microbial Ecology) bioinformatics platform (qiime2.org/) was used to conduct metagenomic analysis. Quality control of the raw reads was performed using FastQC 0.11.8 (Babraham Bioinformatics). […] Phylogenetic diversity was analyzed using align-to-tree-mafft-fasttree pipeline. […] Alpha and beta diversity statistical significance were analyzed using Kruskal-Wallis and PERMANOVA tests (P<0.05), respectively. […]

[6] = test system: various serovars of Salmonella; test: PN3 and PN5 on various serovars of Salmonella; format: cell-based; settings: at MIC, all serovars except S. Muenchen
Experimental: Salmonella serovars (5×10^5 CFU/mL) were treated with peptides and grown at 37° C. for 12 hrs. In addition, bacterial inhibition percentage was calculated by comparing with no peptide control. […] Red: Bactericidal, Green: Non bactericidal.
FIGS. 32A-32B show the growth inhibition percentage of various serovars of Salmonella after treating with minimal inhibitory concentrations of peptides. […] Salmonella serovars (5×10^5 CFU/mL) were treated with peptides and grown at 37° C. for 12 hrs. In addition, bacterial inhibition percentage was calculated by comparing with no peptide control.

Row | Substance | Relative abundance (%) Escherichia-Shigella ([1]; 50-mg/kg dose) | Relative abundance (%) Escherichia-Shigella ([1]; 100-mg/kg dose) | MlaA level decreased vs untreated APEC [2] | OmpC level lower than in untreated APEC [3] | Biofilm embedded SE [4] | Relative abundance (%) Escherichia-Shigella [5] | Growth inhibition of Salmonella serovars [6]
1 | VHTAPK [Peptide P3, VHTAPK] | 9.17% | 14.69% | 1.98 folds | 4.76 folds | – | – | –
2 | NPSRQERR [Peptide P1] | 4.95% | 11.73% | 1.50 folds | 8.63 folds | 0.00 ± 0.00 Log CFU/mL | 4.80† % | –
3 | VQAAQAGDTKPIEV [PN-3] | – | – | – | – | – | – | over 95%
4 | VTDTSGKAGTTKISNV [PN-5] | – | – | – | – | – | – | over 95%
